Test results as given in patent US9926306B2, “Inhibition of MCL-1 and/or BFL-1/A1” (Dana-Farber Cancer Institute, Inc., priority 2012, dated 2018).
The match of structure and compound is tentative. Some entries of the source have several records that differ or are many. They are shown here; other results are not. The source may hold further records. Values that stand side by side seem to repeat one measurement on other runs, samples or individuals.

Chains of the proteins cited; added tags and fusions are not shown. Lines headed by an entry give the natural chain unless they say otherwise; changes in a name come on top. Residues count along the entry.
UniProt Q16548, 1-153 limits assumed, stated change not applied: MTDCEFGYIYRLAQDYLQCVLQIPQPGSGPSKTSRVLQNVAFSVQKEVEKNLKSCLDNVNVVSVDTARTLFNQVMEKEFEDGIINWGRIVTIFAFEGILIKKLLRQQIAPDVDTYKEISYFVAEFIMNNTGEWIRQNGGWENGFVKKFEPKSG

Biological target: BFL-1/A1ΔC (Homo sapiens (Human), UniProt Q16548)
Assay: Competitive fluorescence polarization binding assay, BFL-1/A1 (FITC-BID BH3)
Conditions: read-out: BFL-1/A1 (IC50); Table A; tested form: TFA
Procedure: FIG. 19A and FIG. 19B are graphs that show potent targeting of the anti-apoptotic protein BFL-1/A1 by MIM1. […] Thus, the complex between FITC-BID BH3 and BFL-1/A1ΔC was employed in a competitive FP assay to monitor the capacity of MIM1 to target BFL-1/A1ΔC.
Fluorescence polarization assays (FPA) were performed as previously described^38,39. Briefly, direct binding curves were first generated by incubating FITC-MCL-1 SAHBA, FITC-BID BH3, or FITC-BAD BH3 (15 nM) with serial dilutions of anti-apoptotic protein, and fluorescence polarization measured at 5 minutes on a SpectraMax M5 microplate reader (Molecular Devices). For competition assays, a serial dilution of small molecule or acetylated peptide was added to recombinant protein at ˜EC75 concentration, as determined by the direct binding assay (e.g. MCL-1 ΔNΔC, 45 nM; BCL-XLΔC, 300 nM). Fluorescence polarization was measured at equilibrium and IC50 values calculated by nonlinear regression analysis of competitive binding curves using Prism software (Graphpad).

- IC50: 689 nM and 265 nM
Compound: Cc1s/c(=N\C2CCNCC2)n(/N=C/c2ccc(O)c(O)c2O)c1C1CC1
